These are yes or no findings as the source states them, for the method shown. In cells and extracts the contact can be indirect. These calls come from enrichment with a bait or labelling near it, and not all partners need be listed. Tags and fused reporters may be left off the sequences shown.
target: T1, GFP-SKD1 (SUPPRESSOR OF K(+) TRANSPORT GROWTH DEFECT 1) (A. thaliana) (UniProt Q9ZNT0); experiment: affinity purification with mass spectrometry; GFP-SKD1 immunoprecipitated with the GFP Isolation kit (Miltenyi Biotec; anti-GFP magnetic beads) from extracts of rosette leaves of 35S::GFP-SKD1 plants, heat-treated or kept at RT; on-bead digest, LC-MS/MS; 35S::YFP line as negative control; 3 replicates each
T1 sequence: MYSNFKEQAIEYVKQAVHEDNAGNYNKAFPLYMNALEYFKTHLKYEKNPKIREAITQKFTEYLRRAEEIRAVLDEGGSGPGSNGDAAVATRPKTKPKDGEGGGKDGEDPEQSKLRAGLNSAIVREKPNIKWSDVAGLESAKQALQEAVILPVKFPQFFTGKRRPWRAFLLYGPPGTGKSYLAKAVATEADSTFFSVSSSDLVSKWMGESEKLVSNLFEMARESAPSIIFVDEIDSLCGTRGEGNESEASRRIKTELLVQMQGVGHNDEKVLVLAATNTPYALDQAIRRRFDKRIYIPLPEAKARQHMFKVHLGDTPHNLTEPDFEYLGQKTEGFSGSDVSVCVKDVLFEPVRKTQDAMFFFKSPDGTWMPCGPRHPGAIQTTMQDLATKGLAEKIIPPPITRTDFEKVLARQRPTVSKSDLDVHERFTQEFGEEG

| Binder | binding |
| --- | --- |
| DEAD-BOX ATP-… RNA HELICASE 56 (protein, UniProt Q56XG6 1-427) MGDARDNEAYEEELLDYEEEDEKVPDSGNKVNGEAVKKGYVGIHSSGFRDFLLKPELLRAIVDSGFEHPSEVQHECIPQAILGMDVICQAKSGMGKTAVFVLSTLQQIEPSPGQVSALVLCHTRELAYQICNEFVRFSTYLPDTKVSVFYGGVNIKIHKDLLKNECPHIVVGTPGRVLALAREKDLSLKNVRHFILDECDKMLESLDMRRDVQEIFKMTPHDKQVMMFSATLSKEIRPVCKKFMQDPMEIYVDDEAKLTLHGLVQHYIKLSEMEKNRKLNDLLDALDFNQVVIFVKSVSRAAELNKLLVECNFPSICIHSGMSQEERLTRYKSFKEGHKRILVATDLVGRGIDIERVNIVINYDMPDSADTYLHRVGRAGRFGTKGLAITFVASASDSEVLNQVQERFEVDIKELPEQIDTSTYMPS | binds |
| DEK DOMAIN-CONTAINING CHROMATIN ASSSOCIATED PROTEIN (protein, UniProt Q9SMM8 1-462) MATETLELKTPQLADTVAVTEKDTETKKKDEVEKDEAMEEKGEEIDGEKVKSPVTPVSERPIRERKRTGRYVIDTPPRSSGNKPLSITQGRGTRLKEIPNVAYKLSKRKPDDNLFLLHTILYGKKAKAQMLKKNIGQFSGFVWSEQEEEKQRAKAKEKLDKCIKEKLIDFCDVLDIPVNKSTVKKEELAVRVLEFLVCPKATRDILLADSEKETKKRKKSTSKNVTSGESSHVPAKRRRQAKKQEQPTETEGNGESDVGSEGTNDSNGEDDVAPEEENNKSEDTETEDEKDKAKEKTKSTDKKRLSKRTKKEKPAAEEEKSIKGSAKSSRKSFRQVDKSTTSSSKKQKVDKDDSSKEKGKTQTSKPQAKGSKDQGQSRKKGKKEPTRKELHVVVTKILKEVDFNTATLSDILRKLGSHFGIDLMHRKAEVKDIITDAINEMSDDDDEKEEDTEDEGEKEGKD | binds |
| EUKARYOTIC …ON INITIATION FACTOR 4B1 (protein, UniProt Q9LIN5 1-532) MSKAWGGIGIGAWADEAERADEEQAAEATAATADTQSFPSLREAAAATATSGKSRKMKKMSLSEFTTGAYTAPGGRNSVGLTQQEILQLPTGPRQRSEEEMQPGRLGGGFSSYGGRSGGRIGRDRDDSDGSWSGGGGGGGRRPYGGGFDDDRRGNQSRVSDFPQPSRADEVDDWGKEKKPLPSFDQGRQGRYSGDGGGFGGGGSGFGGGGGGGGGGLSRADDVDNWGAGKRQAPVRSSTFGSSFGDSGQEERRRLVLEPRKVESGGSETPPVVEKTSKPNPFGAARPREDVLAEKGLDWKKIDSEIEAKKGSSQTSRPTSAHSSRPSSAQSNRSESSGLNNVVKPRPKVNPFGDAKPREVLLEEQGKDWRKMDLELEHRRVDRPETEEEKMLKEEIEELRKKLEKESVAPEIKESDQEPGSNNNHNDLPEIIRGKEKDLEILTRELDDKVRFRQKPVERPGSGAGRTGTYSERTHSRAGSIDETRSFESTERPRSRGAVDAWVRPANEQRRNFQGTKERGFFSNRSSSREGW | binds |
| HOMOLOG OF HUMAN KARYOPHENIN SUBUNIT BETA 1 (protein, UniProt Q9FJD4 1-870) MAMEVTQLLINAQSIDGTVRKHAEESLKQFQEQNLAGFLLSLAGELANDEKPVDSRKLAGLVLKNALDAKEQHRKYELVQRWLALDMSTKSQIRAFLLKTLSAPVPDVRSTASQVIAKVAGIELPQKQWPELIVSLLSNIHQLPAHVKQATLETLGYLCEEVSPDVVEQEHVNKILTAVVQGMNAAEGNTDVRLAATRALYMALGFAQANFNNDMERDYIMRVVCEATLSPEVKIRQAAFECLVSIASTYYEKLAHYMQDIFNITAKAVREDDESVALQAIEFWSSICDEEIDILEEYGGEFAGDSDVPCFYFTKQALPGLVPLLLETLLKQEEDQDLDEGAWNIAMAGGTCLGLVARAVGDDIVPHVMPFIEEKISKPDWREREAATYAFGSILEGPSADKLMAIVNAALTFMLNALTNDPSNHVKDTTAWTLGRIFEFLHGSTIETPIINQANCQQIITVLIQSMNDAPNVAEKACGALYFLAQGYEDIGPSSPLTPFFQEIIKSLLAVAHREDATESRLRTAAYEALNEVVRCSTDETSTMVLQLVPVIMMELHNTLEGEKLSLDEREKQNELQGLLCGCLQVIIQKLGSEPTKSKFMEYADQMMGLFLRVFGCRSATAHEEAMLAIGALAYAAGPNFAKYMPEFYKYLEMGLQNFEEYQVCAVTVGVVGDVCRALEDKILPYCDGIMTQLLKDLSSNQLHRSVKPPIFSCFGDIALAIGEDFDKYWRYSMPMLQSAAELSAHSAGADDEMTEYTNSLRNGILEAYSGIFQGFKNSAKTQLLIPFAPHILQFLDSIYMEKDMDEVVMKTAIGVLGDLADTLGSHVGGLIQQSVSSKEFLNECLSSEDHTIKEAAEWAKHAITRAISV | binds |

Source: PMC8264791
